This is one part of the list. Further columns of the screen follow, without active or inactive calls. The list favours compounds with an active or inconclusive main result. Potencies come from curve fits of mixed quality, noted in brackets.
Assay: qHTS Assay for Lipid Storage Modulators in Drosophila S3 Cells;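 for cell number change: cells counted by Cell Tracker Red CMTPX staining in the red channel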
Conditions: BODIPY lipid droplet fluorescence, 18-24 h; for cell number change: measured here: cell count max response, cells fed with added oleic acid
Method in brief: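 Laser-scanning cytometry quantifies lipid droplet accumulation (500–530 nm total intensity; droplet/cell object ratio) in oleic acid-fed (400 uM added) Drosophila S3 cells treated with a concentration series. 20 uM Triacsin C defined 100% inhibition.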

[1] = measured here: cell number channel AC50, cells fed with added oleic acid
[2] = measured here: lipid fluorescence (Fed channel) AC50, cells fed with added oleic acid

Cc1ccc(/C=C/C(=O)Nc2ccc(N(C)C)cc2)o1
cell number change: 31.9% | AC50 [1]: 1030 nM [rising, partial curve] | AC50 [2]: 517 nM [rising, single point]

O=C(CSCc1ccccc1)N1CCN(c2cccc(C(F)(F)F)c2)CC1
cell number change: -27.2%

CN(C)c1ccc(NC(=O)Cc2ccccc2)c2ccccc12
cell number change: -0.211% | AC50 [2]: 7310 nM [rising, partial curve, poor fit]

O=S(=O)(c1ccc2c(c1)OCCCO2)N1CCNCC1
cell number change: -95.7% | AC50 [1]: 9200 nM [falling, partial curve] | AC50 [2]: 20600 nM [falling, partial curve]

CCN1CCN(c2ccc(S(=O)(=O)N3CCCCC3)cc2NC(=O)COc2ccc(F)cc2Cl)CC1
cell number change: 45.1% | AC50 [1]: 1640 nM [rising, partial curve, poor fit]

CCCS(=O)(=O)c1c(S(=O)(=O)CCC)c2ccc(C(N)=O)cn2c1C(=O)c1ccc(OC)cc1
cell number change: 9.07% | AC50 [2]: 6510 nM [rising, full curve, poor fit]

CC(C)CC(=O)Nc1ccccc1Oc1ccccc1
AC50 [2]: 1460 nM [falling, partial curve]

COc1ccccc1N1CCN(S(=O)(=O)c2ccc3c(c2)NC(=O)C(C)C(=O)N3)CC1 (configuration not stated)
cell number change: 29.4% | AC50 [2]: 3660 nM [rising, full curve]

O=C(O)COc1cnc2ccccc2n1
cell number change: 122% | AC50 [1]: 6510 nM [falling, single point]

CCOc1ccc(/C(O)=C2\C(=O)C(=O)N(c3cc(C)on3)C2c2ccccc2OC)cc1 (configuration not stated)
AC50 [1]: 2060 nM [rising, partial curve] | AC50 [2]: 2060 nM [rising, partial curve]

CCCCN(C)CCNC(=O)CCNC(=O)Cn1ccc2ccccc2c1=O
cell number change: -28.5% | AC50 [1]: 326 nM [falling, full curve, poor fit] | AC50 [2]: 146 nM [falling, full curve]

Cc1cccn2cc(CNC(=O)c3ccco3)nc12
cell number change: 22.5%

COCCNC(=O)CN(c1cc(Cl)ccc1OC)S(C)(=O)=O
cell number change: -18.1% | AC50 [2]: 184 nM [falling, full curve, poor fit]

CCC1CCCCN1CCCNC(=O)Cn1nc(-c2ccccc2)ccc1=O (configuration not stated)
AC50 [2]: 1840 nM [falling, partial curve, poor fit]

CCn1c(C)nc2cc(C(=O)NNS(=O)(=O)c3ccc(C)c(C)c3)ccc21
cell number change: -32.3%

COC(=O)N1CCCc2cc(C)ccc21
cell number change: -17.6% | AC50 [2]: 29100 nM [falling, single point]

OC1(c2cccc(F)c2)CCN(Cc2ccncc2)CC1
cell number change: -7.14% | AC50 [2]: 820 nM [falling, full curve, poor fit]

— PubChem BioAssay AID2685 (National Center for Advancing Translational Sciences (NCATS), 2010)
